Source: patent publication US20030032092

Key:
[1] = test system: bacteriophage lambda integrase (Int) + excisionase (Xis) (Bacteriophage lambda); assay: activity in cells; conditions: E. coli G6289/pXL3955, Int plus Xis, 0.05% arabinose 1 h 30 C; attL x attR; protein in cells
[2] = target: T1, bacteriophage lambda integrase (Int) (Bacteriophage lambda) (UniProt P03700); assay: activity in cells; conditions: protein in cells
T1 sequence (looked up, limits assumed): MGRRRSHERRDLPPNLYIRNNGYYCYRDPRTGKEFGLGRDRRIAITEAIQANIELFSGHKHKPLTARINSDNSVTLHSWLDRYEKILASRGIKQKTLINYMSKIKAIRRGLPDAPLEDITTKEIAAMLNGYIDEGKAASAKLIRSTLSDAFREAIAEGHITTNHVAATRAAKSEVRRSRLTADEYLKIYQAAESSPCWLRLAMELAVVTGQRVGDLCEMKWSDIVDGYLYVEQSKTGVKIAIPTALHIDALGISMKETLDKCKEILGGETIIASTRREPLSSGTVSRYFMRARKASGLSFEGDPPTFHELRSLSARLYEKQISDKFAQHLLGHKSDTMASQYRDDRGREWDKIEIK

In the case of “TTCTTTTTTTTCTTGAAGCCTGCTTTTTTATACTAAGTTGGCATTATAAAAAAGCATTGCTTATCAATTTGTTGCAACGAACAGGTCACTATCAGTCAAAATAAAATCATTATTTGATT (double strand) [attL-TH in pXL3955, with attR]”, the activity on this sequence [1] is reported as 80 % recombined.

“TCGAGTTCTTTTTTTTCTTGAAGCCTGCTTTTTTACTAACTTGAGCG / AGCTCGCTCAAGTTAGTATAAAAAAGCAGGCTTCAAGAAAAAAAAGAAC” was tested, and the activity on this sequence ([2]; E. coli G6264, pXL3909, arabinose induction, 30 C, none without inducer, pXL3948 more than 90% in fermentation) was 90 % recombined.

For “ACTAGTGGCCATGCATCCGCTCAAGTTAGTATAAAAAAGCAGGCTTCAG / AGCTCTGAAGCCTGCTTTTTTATACTAACTTGAGCGGATGCATGGCCACTAGTAGCT [attB (oligos 6194/6195) in pXL2777, with attP]”, the “activity on this sequence” value ([2]; E. coli D1210HP, 42 C 15 min then 30 C, minicircle and miniplasmid formed, including dimers) was “active”.

For part of these data: Where a protein sequence is shown, tags need not be part of it. For at least one entry, the source does not settle the construct or the ends of the probe.
